# Reference: PubChem BioAssay AID493014 (National Center for Advancing Translational Sciences (NCATS), 2011)
# The list shows a part of the results. Shown are side measurements of this screen, not its main read-out; they come without a call. The list favours compounds with an active or inconclusive main result. Potencies come from curve fits of mixed quality, noted in brackets.
# Assay: qHTS Assay to Find Inhibitors of Chronic Active B-Cell Receptor Signaling
# Conditions: ABC-DLBCL IkBa-CBG/CBR reporter, luminescence ratio (green luciferase fused to IkBa over red control in TMD8 lymphoma cells), 4 h
# Outline: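 Cell line TMD8 (human ABC DLBCL), stably expressing tet-inducible CBG68-IkBa fusion and CBR; IMDM/0.5% FBS; cpd up to 46 uM; dox induction, 4 h, 37C/5% CO2; dual luminescence; green/red ratio; MG132 control.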
# [1] = measured here: CBR red luminescence, cell number
# [2] = measured here: IkBa-CBG green luminescence
Compound,AC50 [1],AC50 [2]
Cc1ccc(C)c(NC(=S)N/N=C/C(C)c2ccccc2)c1 (stereo not given),"12.6 µM [rising, single point]",
COC(=O)c1cc2c(ccn2-c2ccc(F)cc2)n1Cc1ccc(C#N)cc1,"2.31 µM [rising, full curve]",
CC(=O)Nc1ccc(Nc2ccc(N3C(=O)CCCC3=O)cc2[N+](=O)[O-])cc1,"18.4 µM [rising, partial curve, poor fit]",
COc1ccc(-c2cn3c(C)c(C(=O)NCCN4CCOCC4)sc3n2)cc1,"8.91 µM [falling, partial curve, poor fit]",
CC(C)(O)C#Cc1ccc(C(=O)N2CCN(c3ccc(F)cc3)CC2)cc1,"25.1 µM [falling, single point]",
C=C(C)C(=O)Oc1ccc(N2C(=O)CCC2=O)cc1,"12.6 µM [falling, partial curve, poor fit]",
COc1ccc(OCCC(=O)OCC(=O)NCc2ccco2)cc1,"35.5 µM [falling, single point]","17.8 µM [rising, partial curve, poor fit]"
CC(=O)Nc1nnc(SCc2ccc(C(=O)Nc3ccccc3F)cc2)s1,"3.98 µM [falling, partial curve]",
CC1(C)CC(NC(=O)C2CCCCC2)CC(C)(C)N1,"12.6 µM [falling, partial curve]",
CCCCn1nnc(NC(=O)c2ccc(-c3cccc(Cl)c3)o2)n1,"35.5 µM [falling, single point]",
COc1ccc(C(=O)NCCSc2ccccc2)cc1,"5.8 µM [rising, partial curve, poor fit]",
COc1ccc(NC2CC(=O)N(c3cccc([N+](=O)[O-])c3)C2=O)cc1 (stereo not given),"1 µM [rising, full curve, poor fit]",
Cc1occc1C(=O)N/N=C/c1ccc(OCc2ccccc2)cc1,"11.2 µM [falling, partial curve]",
CCCCSc1nnc2c(n1)OC=Nc1ccccc1-2,"11.2 µM [falling, partial curve]",
CCc1ccccc1NC(=S)NN,"35.5 µM [falling, single point]",
C/C(=N\NC(=O)c1cccc(N/N=C(\C)c2ccc([N+](=O)[O-])cc2)c1)c1ccc([N+](=O)[O-])cc1,"10 µM [falling, partial curve, poor fit]",
COc1cc(C2Nc3ccccc3C(=O)N2c2ccc3c(c2)OCCO3)ccc1OCC(C)C (stereo not given),"29.1 µM [falling, single point]",
COc1ccc(/C(N)=N/OC(=O)c2cccs2)cc1,"35.5 µM [falling, single point]",
Nc1nnc(-c2ccccc2[N+](=O)[O-])o1,"11.2 µM [falling, partial curve]",
COc1ccc(C(CC(=O)Nc2ccc(C)cn2)N2Cc3ccccc3C2=O)cc1 (stereo not given),"5.62 µM [rising, single point]",
COc1ccc2oc(C)c(C(=O)c3ccc(C)cc3)c2c1,"11.2 µM [rising, single point]",

# Copied from the list:
# AC50 [1] with `CC(=O)Nc1nnc(SCc2ccc(C(=O)Nc3ccccc3F)cc2)s1` is entered as 3.98 µM [falling, partial curve]
# AC50 [1] with `Cc1ccc(C)c(NC(=S)N/N=C/C(C)c2ccccc2)c1` (stereo not given) is entered as 12.6 µM [rising, single point]
# AC50 [1] with `C/C(=N\NC(=O)c1cccc(N/N=C(\C)c2ccc([N+](=O)[O-])cc2)c1)c1ccc([N+](=O)[O-])cc1` is entered as 10 µM [falling, partial curve, poor fit]

# (more compounds)

Compound,AC50 [1],AC50 [2]
ClCc1csc(-c2ccc(Cl)cc2)n1,"9.2 µM [rising, partial curve, poor fit]",
CC1CCCN(S(=O)(=O)c2ccc(NC(=O)CN3CCN(C)CC3)cc2)C1 (stereo not given),"35.5 µM [falling, partial curve, poor fit]",
CCOC(=O)Cc1csc(NC(=O)c2cc3ccccc3o2)n1,"5.01 µM [falling, partial curve]",
Oc1c(C(c2ccc(Cl)cc2)N2CCCC2)cc(Cl)c2cccnc12 (stereo not given),"35.5 µM [falling, single point]",
COc1cc(OC)c(C2SCCS2)c(OC)c1,"18.4 µM [rising, single point]",
CCN(c1ccccc1)S(=O)(=O)c1ccc(C(=O)NC2CCN(Cc3ccccc3)CC2)cc1,"29.1 µM [rising, single point]","18.4 µM [falling, partial curve]"
CCN(CC)c1nc(=S)nc(NC(C)(C)C)[nH]1,"14.1 µM [rising, single point]",
COc1cccc(-c2nnc(-c3ccco3)o2)c1,"29.1 µM [falling, single point]",
Nc1nc(NCc2ccc(Cl)cc2)nc(NCCO)c1[N+](=O)[O-],"2.82 µM [rising, partial curve, poor fit]",
COc1cccc(-c2[nH]nc3c2C(c2ccc(C)o2)C(C#N)=C(N)O3)c1 (stereo not given),"4.47 µM [falling, full curve]",
CCOc1ccc(Br)cc1C(=O)N/N=C/c1cccnc1,"35.5 µM [falling, single point]",
C=CCn1c(SCc2c(C)noc2C)nc2sc(C)c(C)c2c1=O,"18.4 µM [rising, single point]",
O=C1C(C=NC2CC2)=C(O)c2ccccc21,"29.1 µM [falling, single point]",
Clc1ccc(C#Cc2cccnc2)cc1,"20.6 µM [rising, single point]",
O=C(COC(=O)c1ccc(F)c(S(=O)(=O)N2CCOCC2)c1)Nc1ccc2[nH]c(=O)[nH]c2c1,"4.61 µM [rising, partial curve, poor fit]",
O=C(CS(=O)CC(=O)Nc1cnc2ccccc2c1)Nc1ccc(Cl)cc1 (stereo not given),"11.2 µM [falling, single point]",
Cc1c(N2C(=O)/C(=C\c3ccc(N(C)C)cc3)N(C)C2=S)c(=O)n(-c2ccccc2)n1C,"29.1 µM [rising, single point]",
COc1ccc(CC(=O)NCc2ccc3c(c2)OCO3)cc1,"0.13 µM [rising, full curve, poor fit]",
COc1ccc(C=O)cc1COc1ccc2c(c1)OCO2,"25.9 µM [rising, single point]","18.4 µM [falling, single point]"
COc1ccc(-c2csc(NC(=S)NC(=O)c3cc4ccccc4o3)n2)cc1Br,"3.55 µM [rising, full curve, poor fit]",
CN(CC(=O)Nc1ccccc1Br)C(=O)c1cc2c(s1)CCCCC2,"20.6 µM [falling, partial curve, poor fit]",
